Laboratory results published in the supplement of paper PMC10849652.
Some of the results follow.

Chains of the proteins cited; added tags and fusions are not shown. Lines headed by an entry give the natural chain unless they say otherwise; changes in a name come on top.
UniProt Q8N567: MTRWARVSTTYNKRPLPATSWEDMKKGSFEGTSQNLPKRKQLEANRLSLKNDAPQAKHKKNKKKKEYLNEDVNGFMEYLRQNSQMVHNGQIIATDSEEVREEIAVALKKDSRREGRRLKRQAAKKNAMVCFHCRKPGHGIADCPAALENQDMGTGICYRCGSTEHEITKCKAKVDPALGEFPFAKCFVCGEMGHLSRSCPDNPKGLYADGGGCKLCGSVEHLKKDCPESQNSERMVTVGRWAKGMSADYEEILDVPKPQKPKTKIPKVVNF
UniProt O14980, whole entry, looked up: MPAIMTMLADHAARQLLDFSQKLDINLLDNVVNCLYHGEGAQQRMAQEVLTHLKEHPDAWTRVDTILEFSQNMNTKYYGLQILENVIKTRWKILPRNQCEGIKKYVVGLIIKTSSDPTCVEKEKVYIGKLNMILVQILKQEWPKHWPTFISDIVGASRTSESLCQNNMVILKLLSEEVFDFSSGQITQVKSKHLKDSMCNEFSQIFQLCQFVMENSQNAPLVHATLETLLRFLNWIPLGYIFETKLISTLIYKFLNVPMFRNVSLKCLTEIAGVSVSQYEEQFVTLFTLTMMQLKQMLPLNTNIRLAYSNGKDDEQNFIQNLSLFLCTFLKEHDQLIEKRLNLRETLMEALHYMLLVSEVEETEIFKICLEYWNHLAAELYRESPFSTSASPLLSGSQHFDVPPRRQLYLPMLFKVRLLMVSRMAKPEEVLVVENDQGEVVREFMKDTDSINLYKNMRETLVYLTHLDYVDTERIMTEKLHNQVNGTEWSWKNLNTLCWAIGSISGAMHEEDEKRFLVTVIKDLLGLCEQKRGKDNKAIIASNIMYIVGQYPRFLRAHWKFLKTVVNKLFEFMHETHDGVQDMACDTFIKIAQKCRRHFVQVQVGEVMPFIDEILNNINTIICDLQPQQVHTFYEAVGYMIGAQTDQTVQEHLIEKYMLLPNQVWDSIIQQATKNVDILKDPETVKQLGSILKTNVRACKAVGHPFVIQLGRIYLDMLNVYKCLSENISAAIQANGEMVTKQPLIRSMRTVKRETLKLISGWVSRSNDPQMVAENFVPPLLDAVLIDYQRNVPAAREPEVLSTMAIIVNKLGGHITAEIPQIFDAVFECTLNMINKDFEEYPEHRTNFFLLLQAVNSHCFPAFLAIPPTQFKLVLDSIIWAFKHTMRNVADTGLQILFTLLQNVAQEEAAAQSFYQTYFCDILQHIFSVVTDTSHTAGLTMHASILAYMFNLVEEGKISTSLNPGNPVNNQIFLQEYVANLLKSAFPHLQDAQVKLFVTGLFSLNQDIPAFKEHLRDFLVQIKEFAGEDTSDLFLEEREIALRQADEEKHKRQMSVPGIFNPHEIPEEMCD
UniProt P52739: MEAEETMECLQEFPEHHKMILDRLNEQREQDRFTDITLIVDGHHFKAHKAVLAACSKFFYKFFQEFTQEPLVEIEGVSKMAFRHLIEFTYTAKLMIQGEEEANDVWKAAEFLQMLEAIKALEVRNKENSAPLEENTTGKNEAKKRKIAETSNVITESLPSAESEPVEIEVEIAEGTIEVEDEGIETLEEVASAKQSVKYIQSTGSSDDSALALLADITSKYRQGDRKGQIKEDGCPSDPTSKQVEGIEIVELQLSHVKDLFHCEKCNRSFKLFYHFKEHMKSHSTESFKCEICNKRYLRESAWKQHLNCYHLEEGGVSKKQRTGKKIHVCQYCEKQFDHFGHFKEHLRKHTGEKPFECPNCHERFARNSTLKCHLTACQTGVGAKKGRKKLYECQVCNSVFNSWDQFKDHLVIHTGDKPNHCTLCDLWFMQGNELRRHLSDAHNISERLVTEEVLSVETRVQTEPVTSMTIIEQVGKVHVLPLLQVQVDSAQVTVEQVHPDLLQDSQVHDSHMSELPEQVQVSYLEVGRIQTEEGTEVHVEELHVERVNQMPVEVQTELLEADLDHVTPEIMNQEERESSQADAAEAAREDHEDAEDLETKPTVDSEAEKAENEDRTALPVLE
UniProt Q9NRH1: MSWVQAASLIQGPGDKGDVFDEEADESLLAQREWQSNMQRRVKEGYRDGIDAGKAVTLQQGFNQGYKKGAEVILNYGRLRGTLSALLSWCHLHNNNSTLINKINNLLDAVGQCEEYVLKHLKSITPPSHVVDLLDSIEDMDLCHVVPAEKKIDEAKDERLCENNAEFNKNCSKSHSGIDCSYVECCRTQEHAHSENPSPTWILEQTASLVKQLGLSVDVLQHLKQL
UniProt Q86VM9: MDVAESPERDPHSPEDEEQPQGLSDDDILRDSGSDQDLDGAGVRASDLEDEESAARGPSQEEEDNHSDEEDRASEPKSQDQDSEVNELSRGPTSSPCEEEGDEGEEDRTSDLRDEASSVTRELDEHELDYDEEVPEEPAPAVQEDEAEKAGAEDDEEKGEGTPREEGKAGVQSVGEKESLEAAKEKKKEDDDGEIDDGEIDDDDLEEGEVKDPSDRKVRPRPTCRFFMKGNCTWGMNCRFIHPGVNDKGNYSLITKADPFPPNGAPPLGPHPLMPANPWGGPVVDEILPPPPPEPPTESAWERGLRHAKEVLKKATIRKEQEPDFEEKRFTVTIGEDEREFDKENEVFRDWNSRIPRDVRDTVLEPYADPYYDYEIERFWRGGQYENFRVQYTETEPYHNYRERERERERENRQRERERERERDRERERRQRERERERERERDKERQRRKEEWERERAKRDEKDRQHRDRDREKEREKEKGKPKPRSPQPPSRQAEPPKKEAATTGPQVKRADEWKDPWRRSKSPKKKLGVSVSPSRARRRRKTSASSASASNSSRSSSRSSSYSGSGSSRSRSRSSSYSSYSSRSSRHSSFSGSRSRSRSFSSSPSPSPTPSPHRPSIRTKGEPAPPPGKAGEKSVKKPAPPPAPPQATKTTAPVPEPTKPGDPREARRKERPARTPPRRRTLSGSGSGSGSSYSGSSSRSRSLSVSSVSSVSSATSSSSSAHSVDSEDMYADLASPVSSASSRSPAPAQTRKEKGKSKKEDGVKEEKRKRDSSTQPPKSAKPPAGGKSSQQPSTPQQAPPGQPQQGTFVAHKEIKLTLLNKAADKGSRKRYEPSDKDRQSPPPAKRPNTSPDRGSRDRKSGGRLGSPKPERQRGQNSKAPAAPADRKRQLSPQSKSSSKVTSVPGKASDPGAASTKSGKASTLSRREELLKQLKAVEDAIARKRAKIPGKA
UniProt Q6PJT7: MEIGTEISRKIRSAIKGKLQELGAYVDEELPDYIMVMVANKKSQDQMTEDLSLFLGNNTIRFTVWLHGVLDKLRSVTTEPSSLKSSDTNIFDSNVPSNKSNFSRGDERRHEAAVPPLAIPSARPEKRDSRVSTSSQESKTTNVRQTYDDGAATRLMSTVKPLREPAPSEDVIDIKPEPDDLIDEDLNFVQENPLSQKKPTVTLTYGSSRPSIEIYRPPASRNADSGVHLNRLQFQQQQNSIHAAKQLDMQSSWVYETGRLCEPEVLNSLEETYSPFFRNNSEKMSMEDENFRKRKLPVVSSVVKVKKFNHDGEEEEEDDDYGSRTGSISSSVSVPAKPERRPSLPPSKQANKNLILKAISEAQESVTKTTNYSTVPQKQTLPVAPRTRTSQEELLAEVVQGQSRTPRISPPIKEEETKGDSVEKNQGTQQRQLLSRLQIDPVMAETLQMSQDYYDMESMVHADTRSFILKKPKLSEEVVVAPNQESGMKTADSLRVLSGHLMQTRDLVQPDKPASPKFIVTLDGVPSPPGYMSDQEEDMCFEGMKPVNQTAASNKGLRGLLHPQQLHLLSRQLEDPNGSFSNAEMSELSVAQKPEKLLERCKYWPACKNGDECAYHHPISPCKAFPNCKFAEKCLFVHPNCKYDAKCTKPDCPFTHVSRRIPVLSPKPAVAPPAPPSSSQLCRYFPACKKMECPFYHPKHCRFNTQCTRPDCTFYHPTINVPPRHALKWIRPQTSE
UniProt Q9C0E2: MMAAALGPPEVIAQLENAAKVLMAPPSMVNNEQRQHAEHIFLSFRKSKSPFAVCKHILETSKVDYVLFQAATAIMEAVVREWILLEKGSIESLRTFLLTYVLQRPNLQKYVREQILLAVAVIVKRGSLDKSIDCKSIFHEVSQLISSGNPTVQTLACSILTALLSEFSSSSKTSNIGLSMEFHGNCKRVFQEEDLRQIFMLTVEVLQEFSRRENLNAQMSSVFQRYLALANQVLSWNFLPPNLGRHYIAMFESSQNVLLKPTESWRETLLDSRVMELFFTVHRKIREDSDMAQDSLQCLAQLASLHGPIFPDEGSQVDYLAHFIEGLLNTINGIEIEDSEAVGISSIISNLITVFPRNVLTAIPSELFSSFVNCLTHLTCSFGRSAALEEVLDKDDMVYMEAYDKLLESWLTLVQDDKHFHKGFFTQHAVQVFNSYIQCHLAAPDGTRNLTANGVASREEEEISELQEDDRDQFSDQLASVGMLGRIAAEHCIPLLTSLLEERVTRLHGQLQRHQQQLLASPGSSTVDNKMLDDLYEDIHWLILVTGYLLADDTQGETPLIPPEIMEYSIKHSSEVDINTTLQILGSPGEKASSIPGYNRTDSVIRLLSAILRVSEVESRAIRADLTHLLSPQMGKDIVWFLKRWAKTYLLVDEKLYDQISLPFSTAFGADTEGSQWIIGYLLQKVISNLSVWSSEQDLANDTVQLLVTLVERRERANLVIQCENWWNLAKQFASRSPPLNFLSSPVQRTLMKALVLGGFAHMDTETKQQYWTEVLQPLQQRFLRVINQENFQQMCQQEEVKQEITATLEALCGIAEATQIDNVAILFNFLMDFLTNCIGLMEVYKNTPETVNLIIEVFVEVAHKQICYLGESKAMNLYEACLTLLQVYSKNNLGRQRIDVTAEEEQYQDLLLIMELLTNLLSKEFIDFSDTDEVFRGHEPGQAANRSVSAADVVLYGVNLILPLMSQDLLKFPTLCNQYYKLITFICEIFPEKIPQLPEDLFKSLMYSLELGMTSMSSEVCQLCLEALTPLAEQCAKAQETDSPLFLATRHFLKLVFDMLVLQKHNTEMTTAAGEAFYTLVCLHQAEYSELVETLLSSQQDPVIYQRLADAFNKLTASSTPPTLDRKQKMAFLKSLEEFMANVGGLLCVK
UniProt Q9H8U3: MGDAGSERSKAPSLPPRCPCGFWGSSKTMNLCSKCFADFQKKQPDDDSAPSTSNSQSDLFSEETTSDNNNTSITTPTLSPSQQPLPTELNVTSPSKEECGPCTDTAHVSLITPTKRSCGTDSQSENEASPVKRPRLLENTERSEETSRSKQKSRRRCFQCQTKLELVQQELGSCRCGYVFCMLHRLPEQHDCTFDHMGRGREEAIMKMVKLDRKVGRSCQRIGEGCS
UniProt Q9HCC9: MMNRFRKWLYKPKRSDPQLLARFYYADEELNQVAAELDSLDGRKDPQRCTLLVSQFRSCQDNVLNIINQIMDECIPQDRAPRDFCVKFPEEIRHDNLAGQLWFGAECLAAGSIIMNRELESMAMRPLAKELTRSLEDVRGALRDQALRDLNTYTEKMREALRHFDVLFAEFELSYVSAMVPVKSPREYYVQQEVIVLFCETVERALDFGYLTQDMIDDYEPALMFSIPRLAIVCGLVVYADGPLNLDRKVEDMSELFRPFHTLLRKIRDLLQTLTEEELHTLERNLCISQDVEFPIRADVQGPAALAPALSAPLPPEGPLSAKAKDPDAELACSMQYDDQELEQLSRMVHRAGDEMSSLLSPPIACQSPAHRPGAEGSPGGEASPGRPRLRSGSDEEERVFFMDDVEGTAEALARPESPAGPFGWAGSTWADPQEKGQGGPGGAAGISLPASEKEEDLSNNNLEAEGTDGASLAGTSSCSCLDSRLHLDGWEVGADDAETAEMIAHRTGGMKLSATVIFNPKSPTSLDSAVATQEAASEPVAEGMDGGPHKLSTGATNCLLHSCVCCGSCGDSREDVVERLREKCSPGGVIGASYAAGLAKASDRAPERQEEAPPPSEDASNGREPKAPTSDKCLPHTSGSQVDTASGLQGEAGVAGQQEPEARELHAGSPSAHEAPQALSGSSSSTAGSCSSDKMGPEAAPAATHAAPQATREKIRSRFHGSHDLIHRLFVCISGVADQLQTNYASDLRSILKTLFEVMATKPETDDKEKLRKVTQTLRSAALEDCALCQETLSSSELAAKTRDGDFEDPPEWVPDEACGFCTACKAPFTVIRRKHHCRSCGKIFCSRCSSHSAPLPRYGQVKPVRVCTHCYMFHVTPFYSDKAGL
UniProt Q9NUD5: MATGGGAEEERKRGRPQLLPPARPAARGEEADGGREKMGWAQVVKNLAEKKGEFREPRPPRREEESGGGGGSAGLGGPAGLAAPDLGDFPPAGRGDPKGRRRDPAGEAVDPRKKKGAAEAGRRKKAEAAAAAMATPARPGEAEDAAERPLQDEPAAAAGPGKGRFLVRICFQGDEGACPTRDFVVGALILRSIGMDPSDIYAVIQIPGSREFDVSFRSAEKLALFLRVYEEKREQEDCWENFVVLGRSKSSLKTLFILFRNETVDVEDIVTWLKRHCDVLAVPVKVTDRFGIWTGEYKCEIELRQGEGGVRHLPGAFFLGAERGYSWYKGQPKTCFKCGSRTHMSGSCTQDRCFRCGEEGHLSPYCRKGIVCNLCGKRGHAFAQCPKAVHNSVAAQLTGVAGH

Columns and labels:
Assay in all cases: log2 fold change, soluble protein after heating vs DMSO (PISA); higher = thermal stabilisation; K562 cells, 10 uM, 30 min; active = over 0.2 and 3.5 SD of the protein, either way, in both replicates (recomputed)
[1] = compound: C1=CC=C(C=C1)[C@H](COC2=CC3=C(C=C2)NC(=O)N3)NC(=O)C4=CC=CN(C4=O)CC5=CC(=C(C=C5)F)F
Procedure, shortened: (§1)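 For each measurement, 10 μM compound was applied for 30 min to K562 cells at 2×10^6 cells/mL. Aliquots were heated for 3 min across 48°C-58°C, pooled, and extracted in PBS with 0.5% NP-40 at 4°C; the supernatant after 21,000xg for 90 min was soluble protein. This was quantified by TMTpro 16plex LC-MS/MS with channel sums equalised, and thermal stability was reported relative to control samples from duplicates, on a log2 fold-change scale.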

[2] = compound: CC1=C(SC2=C1C(=N[C@H](C3=NN=C(N32)C)CC(=O)N)C4=CC=C(C=C4)Cl)C
Procedure, shortened: as §1

[3] = compound: CC1=C2C(=CC=C1)N=C(N(C2=O)C3=CC=CC=C3C)CN4C=NC5=C(N=CN=C54)N
Procedure, shortened: as §1

[4] = compound: Cc1sc2c(c1C)C(c1ccc(Cl)cc1)=N[C@@H](CC(=O)OC(C)(C)C)c1nnc(C)n1-2
Procedure, shortened: as §1

[5] = compound: c1ccc([C@@H]2C[C@H]2NC2CCNCC2)cc1
Procedure, shortened: as §1

Measured: log2 fold change

ZCCHC9 (UniProt Q8N567)
inactive: [1] 0.173 | [2] -0.074 | [3] -0.202 | [4] 0.222 | [5] 0.023

XPO1 (UniProt O14980)
inactive: [1] -0.064 | [2] 0.053 | [3] 0.044 | [4] -0.011 | [5] -0.013

ZNF131 (UniProt P52739)
inactive: [1] 0.597

YAE1 (UniProt Q9NRH1)
inactive: [1] -0.021 | [2] -0.111 | [3] 0.016 | [4] -0.014 | [5] 0.095

ZC3H18 (UniProt Q86VM9)
inactive: [1] 0.032 | [2] -0.031 | [3] 0.035 | [4] 0.021 | [5] 0.047

ZC3H14 (UniProt Q6PJT7)
inactive: [1] 0.028 | [2] -0.036 | [3] -0.024 | [4] 0.128 | [5] 0.107

XPO4 (UniProt Q9C0E2)
inactive: [1] -0.003 | [2] 0.056 | [3] 0.025 | [4] 0.007 | [5] 0.006

ZFAND3 (UniProt Q9H8U3)
inactive: [1] 0.022 | [2] -0.009 | [3] -0.112 | [4] -0.001 | [5] 0.052

ZFYVE28 (UniProt Q9HCC9)
inactive: [1] -0.082

ZCCHC3 (UniProt Q9NUD5)
inactive: [1] 0.075 | [2] -0.205 | [3] -0.145 | [4] 0.244 | [5] 0.04
